Test results reported in patent US12485127B2, “Compositions and methods for treatment and prevention of actinic keratosis using copper chlorin” (CHL Industries, LLC, priority 2024, dated 2025).
Some of these results come from one statement about several compounds together. For some of these results: At least one structure is not confirmed: it was looked up by name or label, or the drawing left a doubt.

What was measured:
[1] = tested on: HPV-18 (strain: KC470230.1); experiment: HPV-18 genome plasmid replication assay in C-33 A cells; assay type: cell-based, human papillomavirus
Protocol: (§1) The in vitro testing of the chlorin compounds and the positive control for antiviral cytopathic effect (CPE) was conducted through The National Institute of Allergy and Infectious Diseases (NIAID) NCEA Program. The in vitro testing was done by the method described by Beadle J R, Valiaeva N, Yang G, Yu J H, Broker T R, Aldern K A, et al. Synthesis and Antiviral Evaluation of Octadecyloxyethyl Benzyl 9-[(2-Phosphonomethoxy)ethyl]guanine (ODE-Bn-PMEG), a Potent Inhibitor of Transient HPV DNA Amplification. J Med Chem. 2016; 59(23):10470-8. PubMed PMID: 27933957. This method uses an HPV-11 replicon assay. The replicon (pMP619) is transfected into C-33 A cells grown as monolayers in 384-well plates. At 48 hours post transfection, the enzymatic activity of the destabilized NanoLuc reporter is assessed with NanoGlo reagent. […] The host C-33 A cells are epithelial cells originally isolated from the cervix of a uterine cancer patient. […]
(§2) The in vitro test method used to assess activity of copper chlorins according to embodiments herein against HPV-18 and HPV-31 used the same replication and quantification method described previously for Table 1 results but with HPV-18 and HPV-31 genome plasmids. […]

[2] = tested on: HPV-31 (strain: HQ53768.1); experiment: HPV-31 genome plasmid replication assay in C-33 A cells; assay type: cell-based, human papillomavirus
Protocol: as §1, §2

| Compound | antiviral activity classification based on SI50 [1] | antiviral activity classification based on SI50 [2] |
| --- | --- | --- |
| C=Cc1c(C)c2cc3nc(c(CC(=O)[O-])c4[n-]c(cc5nc(cc1[n-]2)C(C)=C5CC)c(C)c4C(=O)[O-])C(CCC(=O)[O-])C3C.[Cu+2].[Na+].[Na+].[Na+] (stereo not shown) [Trisodium copper chlorin e6] | moderately active (SI50=10−49, moderately active) | – |
| Disodium copper isochlorin e4 | moderately active (SI50=10−49, moderately active) | highly active (SI50>50 highly active) |
| Trisodium copper rhodin g7 | – | highly active (SI50>50 highly active) |
